According to publication PMC6586822:
These are yes or no findings as the source states them, for the method shown.

By UniProt entry, the sequences of proteins in these tests, tags left out. Residues count along the entry.
UniProt P17927, residues 42-1971: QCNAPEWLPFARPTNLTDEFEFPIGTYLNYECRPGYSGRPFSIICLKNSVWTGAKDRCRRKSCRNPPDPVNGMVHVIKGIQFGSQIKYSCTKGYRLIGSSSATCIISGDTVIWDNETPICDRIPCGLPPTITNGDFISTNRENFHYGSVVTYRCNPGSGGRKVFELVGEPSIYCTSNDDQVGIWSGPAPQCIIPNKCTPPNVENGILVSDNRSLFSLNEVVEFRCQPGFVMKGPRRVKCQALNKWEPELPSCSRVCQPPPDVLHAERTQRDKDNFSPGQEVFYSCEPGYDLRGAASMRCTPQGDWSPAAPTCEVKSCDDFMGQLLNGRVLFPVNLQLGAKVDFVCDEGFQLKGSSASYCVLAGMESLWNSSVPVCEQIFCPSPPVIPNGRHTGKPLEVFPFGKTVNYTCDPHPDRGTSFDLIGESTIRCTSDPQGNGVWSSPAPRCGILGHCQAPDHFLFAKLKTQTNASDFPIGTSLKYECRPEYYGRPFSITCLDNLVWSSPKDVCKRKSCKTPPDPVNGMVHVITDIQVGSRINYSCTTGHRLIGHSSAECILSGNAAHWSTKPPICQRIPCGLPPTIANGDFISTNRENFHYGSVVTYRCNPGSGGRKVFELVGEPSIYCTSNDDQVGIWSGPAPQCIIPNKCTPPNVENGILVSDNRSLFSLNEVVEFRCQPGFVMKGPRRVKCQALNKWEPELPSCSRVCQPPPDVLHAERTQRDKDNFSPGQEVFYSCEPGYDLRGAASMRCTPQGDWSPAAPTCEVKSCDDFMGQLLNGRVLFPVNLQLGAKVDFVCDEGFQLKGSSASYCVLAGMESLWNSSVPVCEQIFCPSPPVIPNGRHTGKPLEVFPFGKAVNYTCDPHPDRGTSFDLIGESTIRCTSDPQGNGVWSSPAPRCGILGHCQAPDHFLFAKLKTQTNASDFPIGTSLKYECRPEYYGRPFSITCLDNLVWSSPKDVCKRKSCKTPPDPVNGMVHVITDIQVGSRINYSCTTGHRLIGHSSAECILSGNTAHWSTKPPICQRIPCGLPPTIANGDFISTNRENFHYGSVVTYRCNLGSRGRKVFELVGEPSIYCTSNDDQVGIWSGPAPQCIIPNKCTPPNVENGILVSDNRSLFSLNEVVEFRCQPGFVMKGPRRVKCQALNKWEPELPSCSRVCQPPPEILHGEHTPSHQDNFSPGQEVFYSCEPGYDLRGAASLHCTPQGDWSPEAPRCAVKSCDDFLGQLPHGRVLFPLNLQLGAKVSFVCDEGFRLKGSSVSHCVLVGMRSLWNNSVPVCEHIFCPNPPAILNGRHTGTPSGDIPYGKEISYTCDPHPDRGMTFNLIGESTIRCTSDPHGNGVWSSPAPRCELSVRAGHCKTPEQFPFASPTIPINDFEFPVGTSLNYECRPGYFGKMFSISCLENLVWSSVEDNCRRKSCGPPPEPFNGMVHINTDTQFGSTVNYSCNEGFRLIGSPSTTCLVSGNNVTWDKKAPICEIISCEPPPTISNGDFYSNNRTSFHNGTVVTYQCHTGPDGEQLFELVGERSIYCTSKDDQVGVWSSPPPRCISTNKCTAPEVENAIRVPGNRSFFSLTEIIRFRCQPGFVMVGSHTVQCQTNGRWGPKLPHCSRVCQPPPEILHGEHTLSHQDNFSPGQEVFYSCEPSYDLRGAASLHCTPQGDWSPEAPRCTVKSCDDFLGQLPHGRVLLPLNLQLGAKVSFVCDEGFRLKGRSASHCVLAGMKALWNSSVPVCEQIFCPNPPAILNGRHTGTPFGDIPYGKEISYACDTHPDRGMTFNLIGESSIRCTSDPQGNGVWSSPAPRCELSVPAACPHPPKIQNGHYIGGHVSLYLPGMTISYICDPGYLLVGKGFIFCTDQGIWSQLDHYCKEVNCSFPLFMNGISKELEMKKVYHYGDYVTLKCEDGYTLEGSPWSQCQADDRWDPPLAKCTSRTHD
UniProt A5K736, residues 161-1454: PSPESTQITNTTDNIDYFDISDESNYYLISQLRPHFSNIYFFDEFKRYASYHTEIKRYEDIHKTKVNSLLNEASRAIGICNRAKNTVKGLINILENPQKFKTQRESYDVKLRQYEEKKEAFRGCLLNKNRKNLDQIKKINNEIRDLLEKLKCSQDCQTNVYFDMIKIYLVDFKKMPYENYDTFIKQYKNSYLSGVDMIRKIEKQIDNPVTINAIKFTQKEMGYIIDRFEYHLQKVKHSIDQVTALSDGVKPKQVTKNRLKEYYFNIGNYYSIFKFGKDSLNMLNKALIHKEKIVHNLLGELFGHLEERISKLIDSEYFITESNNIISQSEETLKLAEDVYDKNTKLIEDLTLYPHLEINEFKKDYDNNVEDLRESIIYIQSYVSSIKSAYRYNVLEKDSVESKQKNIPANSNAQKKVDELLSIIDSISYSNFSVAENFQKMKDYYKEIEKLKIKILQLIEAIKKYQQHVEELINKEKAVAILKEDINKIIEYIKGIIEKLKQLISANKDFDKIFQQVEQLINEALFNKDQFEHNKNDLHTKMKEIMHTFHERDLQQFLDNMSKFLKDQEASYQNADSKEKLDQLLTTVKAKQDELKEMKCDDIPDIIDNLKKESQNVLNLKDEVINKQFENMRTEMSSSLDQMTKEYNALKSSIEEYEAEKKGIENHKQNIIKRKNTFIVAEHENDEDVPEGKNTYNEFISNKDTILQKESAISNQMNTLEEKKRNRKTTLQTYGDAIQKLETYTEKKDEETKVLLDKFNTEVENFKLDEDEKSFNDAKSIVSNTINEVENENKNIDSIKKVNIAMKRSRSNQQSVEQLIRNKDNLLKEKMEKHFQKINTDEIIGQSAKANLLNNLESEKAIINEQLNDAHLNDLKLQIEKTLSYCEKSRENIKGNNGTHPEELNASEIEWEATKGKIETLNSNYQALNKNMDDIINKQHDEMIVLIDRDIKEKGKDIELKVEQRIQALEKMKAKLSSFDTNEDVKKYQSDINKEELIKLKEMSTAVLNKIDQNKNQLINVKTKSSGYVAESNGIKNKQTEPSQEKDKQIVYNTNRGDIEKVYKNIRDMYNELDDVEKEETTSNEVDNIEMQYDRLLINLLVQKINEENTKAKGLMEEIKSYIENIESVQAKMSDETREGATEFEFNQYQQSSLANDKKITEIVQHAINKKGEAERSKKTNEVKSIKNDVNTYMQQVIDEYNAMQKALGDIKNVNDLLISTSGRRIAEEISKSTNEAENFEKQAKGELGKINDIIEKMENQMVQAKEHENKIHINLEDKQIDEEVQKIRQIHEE

Biological target: soluble recombinant CR1 protein (human) (UniProt P17927)
Test: co-IP; recombinant proteins incubated at 0.05 mg/ml in 50-100 µl for 1 hour at room temperature; sCR1 captured with anti-CR1 mAb HB8592 (0.02 mg/ml) and Protein G Sepharose; beads washed three times with PBS; eluates on reducing SDS-PAGE, SimplyBlue SafeStain; both purified

Substance: PvRBP2b (amino acids 161-1454) (from UniProt A5K736 161-1454) (domain or fragment)
- binding: no binding (tested: 0.05 mg/ml)
